Consider 22 compounds from PubChem BioAssay AID328 (DTP/NCI, 2004).

In the assay the test system is BDF1 mice, P388 leukemia ip, median survival T/C. Put plainly: NCI In Vivo Anticancer Drug Screen. Data for tumor model P388 Leukemia (intraperitoneal) in B6D2F1 (BDF1) mice. The note with it: T/C endpoint: median survival time, higher T/C = longer survival. The method, boiled down:
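Compound-treated tumour-bearing mice were compared with vehicle-treated controls. Survival was recorded, and the value is the treated-group measurement divided by the control-group measurement (T/C).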

The mark [1] stands for this setting: dose: 13.0 mg/kg/injection, schedule: Q04DX003 (ip), vehicle: saline.
[2] abbreviates: dose: 200.0 mg/kg/injection, schedule: Q01DX009 (ip), vehicle: saline.
Setting [3] is: dose: 50.0 mg/kg/injection, schedule: Q01DX009 (ip), vehicle: saline with Tween-80.
Where [4] appears, read: dose: 100.0 mg/kg/injection, schedule: Q01DX009 (ip), vehicle: saline with Tween-80.
[5] abbreviates: dose: 200.0 mg/kg/injection, schedule: Q01DX009 (ip), vehicle: saline with Tween-80.
Setting [6] is: dose: 12.5 mg/kg/injection, schedule: Q01DX009 (ip), vehicle: saline.
Where [7] appears, read: dose: 21.0 mg/kg/injection, schedule: Q04DX003 (ip), vehicle: saline.
Setting [8] is: dose: 50.0 mg/kg/injection, schedule: Q04DX003 (ip), vehicle: saline.
The mark [9] stands for this setting: dose: 50.0 mg/kg/injection, schedule: Q01DX009 (ip), vehicle: saline.

The list is a part of this screen's results and no random one: it gathers tests that were run many times, whatever their T/C, doses with no T/C, and many T/C values between a quarter and a half above the control. Further doses and runs are listed elsewhere. T/C: endpoint of the treated group in % of that of the vehicle group. Some doses have a count of surviving animals in place of a T/C: the source holds a T/C of zero for them, seemingly a mark for toxic or unscored doses. Some survivor counts are full or nearly so, which does not show that the dose was tolerated: survival well below the control is almost never listed, so the zero probably covers shortened survival too. Counts of survivors are from the toxicity check (mostly the fifth day) where no day follows; animals may have died later. Schedule codes are those of the source, read here as Q, the interval in days (D) or hours (H), X, the number of doses. Where survival is the endpoint, the PubChem record calls one and a half times the control and up active, and a quarter to a half above the control has no call in these data; cut-offs in other NCI protocols can differ. Some T/C values are followed by the survivors on the day toxicity was checked, most often the fifth; where none is given, no animal had died by that day.

As to `C=C1C(=O)O[C@@H]2/C=C(\CO)CC/C=C(\C)C[C@H](OC(=O)C(C)CO)[C@@H]12` (stereo not given in full), the T/C runs as follows: (dose: 5.5 mg/kg/injection, schedule: Q01DX009 (ip), vehicle: alcohol) 131 % of control; (dose: 11.0 mg/kg/injection, schedule: Q01DX009 (ip), vehicle: alcohol) 140 % of control. In addition, the survivor count (dose: 22.0 mg/kg/injection, schedule: Q01DX009 (ip), vehicle: alcohol) was 3 of 6.

Consider `C[n+]1c(-c2cccc3ccccc23)c2cc([N+](=O)[O-])ccc2c2ccccc21`, for which the T/C by setting is: (dose: 2.0 mg/kg/injection, schedule: Q04DX003 (ip), vehicle: water) 126 % of control; (dose: 4.0 mg/kg/injection, schedule: Q04DX003 (ip), vehicle: water) 126 % of control; (dose: 8.0 mg/kg/injection, schedule: Q01DX009 (ip), vehicle: water) 141 % of control; (dose: 16.0 mg/kg/injection, schedule: Q01DX009 (ip), vehicle: water) 138 % of control; (dose: 16.0 mg/kg/injection, schedule: Q04DX003 (ip), vehicle: water) 132 % of control; (dose: 32.0 mg/kg/injection, schedule: Q04DX003 (ip), vehicle: water) 126 % of control.

In the case of `Nc1cccc2c1C(=O)C=CC2=O`, the T/C (dose: 6.5 mg/kg/injection, schedule: Q04DX003 (ip), vehicle: saline) is 130 % of control. Further, the survivor count under setting [1] is given as 3 of 6.

For `O=C(CC(c1ccccc1)C(C(=O)O)c1ccccc1)c1ccccc1` (stereo not given), the T/C (dose: 200.0 mg/kg/injection, schedule: Q01DX009 (ip), vehicle: Klucel (hydroxypropylcellulose) (HPC)) was 138 % of control [5 of 6 alive].

Turning to `OCCNCCNc1ccnc2cc(Cl)ccc12`, the survivor count under setting [2] was 6 of 6.

Turning to `O=C(O)c1c[nH]c2nccnc12`, the survivor count was 6 of 6 (dose: 50.0 mg/kg/injection, schedule: Q01DX009 (ip), vehicle: water); 4 of 6 (dose: 200.0 mg/kg/injection, schedule: Q01DX009 (ip), vehicle: water); 5 of 6 (dose: 400.0 mg/kg/injection, schedule: Q01DX009 (ip), vehicle: water).

Turning to `CCc1ccc(NC(=O)N(CCCl)N=O)cc1`, the T/C (dose: 1.25 mg/kg/injection, schedule: Q04DX003 (ip), vehicle: Klucel (hydroxypropylcellulose) (HPC)) is 136 % of control; the T/C (dose: 2.5 mg/kg/injection, schedule: Q04DX003 (ip), vehicle: Klucel (hydroxypropylcellulose) (HPC)) was 140 % of control; the T/C (dose: 17.0 mg/kg/injection, schedule: Q01DX009 (ip), vehicle: gum acacia) was 140 % of control. The survivor count is, setting by setting: (dose: 25.0 mg/kg/injection, schedule: Q01DX009 (ip), vehicle: gum acacia) 6 of 6; (dose: 37.0 mg/kg/injection, schedule: Q01DX009 (ip), vehicle: gum acacia) 6 of 6; (dose: 50.0 mg/kg/injection, schedule: Q01DX009 (ip), vehicle: gum acacia) 5 of 6; (dose: 100.0 mg/kg/injection, schedule: Q01DX009 (ip), vehicle: gum acacia) 4 of 6.

Turning to `COC(=O)c1c(Cl)c(Cl)c(C(=O)OC)c(Cl)c1Cl`, the T/C (dose: 400.0 mg/kg/injection, schedule: Q04DX003 (ip), vehicle: saline with Tween-80) was 137 % of control.

In the case of `O=S(=O)(CCl)OCCCl`, the T/C is, setting by setting: under setting [3], 139 % of control; under setting [4], 131 % of control. The survivor count under setting [5] is listed as 0 of 6.

Turning to `ClC(Cl)(Cl)SSC(=Nc1ccccc1)SSC(Cl)(Cl)Cl`, the survivor count under setting [5] is given as 0 of 6.

In the case of `CCC[N+]12C(O)C(CC)C3CC1C1N(C)c4ccc(Br)cc4C14CC2C3C4O` (stereo not given), the survivor count under setting [5] is reported as 5 of 6.

Turning to `O=CN(O)CC(=O)O.[Ni]`, the survivor count is recorded as 6 of 6 (dose: 4.6 mg/kg/injection, schedule: Q01DX001 (ip), vehicle: saline); 4 of 6 under setting [6]; 3 of 6 under setting [1]; 3 of 6 under setting [7]; 0 of 6 (dose: 30.0 mg/kg/injection, schedule: Q04DX003 (ip), vehicle: saline); 1 of 6 (dose: 45.0 mg/kg/injection, schedule: Q01DX001 (ip), vehicle: saline). Besides, the survivor count is, setting by setting: (dose: 70.0 mg/kg/injection, schedule: Q01DX001 (ip), vehicle: saline) 0 of 6; (dose: 105.0 mg/kg/injection, schedule: Q01DX001 (ip), vehicle: saline) 0 of 6. In addition, the T/C under setting [7] is 127 % of control.

For the compound `C/C(=C\COc1ccc2ccc(=O)oc2c1)C1=CC(=O)C(C)(C)O1`, the T/C under setting [5] is 130 % of control and the T/C (dose: 400.0 mg/kg/injection, schedule: Q01DX009 (ip), vehicle: saline with Tween-80) was 130 % of control.

Take `O=C1C(=C(C(F)(F)F)C(F)(F)F)CCc2ccc([N+](=O)[O-])cc21`: the T/C (dose: 200.0 mg/kg/injection, schedule: Q04DX003 (ip), vehicle: saline with Tween-80) was 130 % of control.

`O=[N+]([O-])c1ccc(-[n+]2nc(-c3ccccc3)nn2-c2ccc(I)cc2)cc1`: for the setting “dose: 50.0 mg/kg/injection, schedule: Q01DX009 (ip), vehicle: Klucel (hydroxypropylcellulose) (HPC)”, the survivor count is on record as 6 of 6.

On to `CCN1C[C@]2(COC)[C@H](O)C[C@H](OC)[C@]34C1[C@H]([C@H](OC)[C@H]23)[C@]1(OC(C)=O)[C@H]2[C@@H](OC(=O)c3ccccc3)[C@](O)(C[C@H]24)[C@@H](OC)[C@@H]1O`, for which the survivor count is recorded as 3 of 6 (dose: 0.5 mg/kg/injection, schedule: Q01DX009 (ip), vehicle: Klucel (hydroxypropylcellulose) (HPC)) and 0 of 6 (dose: 1.0 mg/kg/injection, schedule: Q01DX009 (ip), vehicle: Klucel (hydroxypropylcellulose) (HPC)).

For `c1ccc2c[n+]3cc4ccccc4cc3cc2c1`, the survivor count was 2 of 6 (dose: 35.0 mg/kg/injection, schedule: Q01DX009 (ip), vehicle: saline) and 5 of 6 under setting [8].

Regarding `CC1CCCCC1(O)CSc1ccccc1` (stereo not given), under setting [3], the T/C was 131 % of control.

As to `O=S1(=O)CC=C1c1ccccc1`, the T/C runs as follows: under setting [3], 126 % of control; under setting [4], 141 % of control. Also, the survivor count under setting [5] is recorded as 1 of 6.

Consider `CC12CCOC(=O)/C=C/C=C/C(=O)OC3CC4OC5C6OC6(C)CCC5(COC(=O)C1O2)C3(C)C41CO1` (stereo not given), for which the T/C runs as follows: (dose: 1.25 mg/kg/injection, schedule: Q01DX009 (ip), vehicle: saline + alcohol) 127 % of control; (dose: 5.0 mg/kg/injection, schedule: Q01DX009 (ip), vehicle: saline + alcohol) 148 % of control.

On to `CC1=C(Br)C(=O)C(c2c(C)cc(C)cc2C)=C(Br)C1=O`, for which the survivor count reads like this: (dose: 25.0 mg/kg/injection, schedule: Q01DX009 (ip), vehicle: saline) 6 of 6; under setting [9], 5 of 6; (dose: 100.0 mg/kg/injection, schedule: Q01DX009 (ip), vehicle: saline) 5 of 6; under setting [2], 2 of 6.

Regarding `OCCN1CCN(CC/C=C2/c3ccccc3Sc3ccc(Cl)cc32)CC1`, the T/C was 131 % of control under setting [6]; 125 % of control (dose: 18.7 mg/kg/injection, schedule: Q01DX009 (ip), vehicle: saline); 140 % of control (dose: 22.0 mg/kg/injection, schedule: Q04DX003 (ip), vehicle: saline). In addition, the survivor count by setting is: under setting [9], 4 of 6; under setting [8], 0 of 6; (dose: 75.0 mg/kg/injection, schedule: Q04DX003 (ip), vehicle: saline) 0 of 6; (dose: 100.0 mg/kg/injection, schedule: Q04DX003 (ip), vehicle: saline) 5 of 6; (dose: 200.0 mg/kg/injection, schedule: Q04DX003 (ip), vehicle: saline) 0 of 6; (dose: 400.0 mg/kg/injection, schedule: Q04DX003 (ip), vehicle: saline) 0 of 6.
